The results in this text go back to PMC6771824.

No constants are given. Whether binding was seen depends on the method and setting. For some assays here: In cells and extracts the contact can be indirect. Some entries that bind do so weakly or less than the wild type.

Experiment [1] has as its target T1, RING1B (human), Q99496.
T1 chain: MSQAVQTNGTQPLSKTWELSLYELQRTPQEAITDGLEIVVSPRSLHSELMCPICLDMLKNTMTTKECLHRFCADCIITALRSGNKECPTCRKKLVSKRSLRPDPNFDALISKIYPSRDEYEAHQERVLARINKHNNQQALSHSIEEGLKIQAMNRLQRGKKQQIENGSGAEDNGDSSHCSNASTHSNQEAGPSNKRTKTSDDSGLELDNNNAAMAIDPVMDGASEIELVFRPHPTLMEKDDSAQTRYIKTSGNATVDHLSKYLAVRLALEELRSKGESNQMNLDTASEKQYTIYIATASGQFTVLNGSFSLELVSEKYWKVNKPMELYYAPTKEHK
The experiment is described as follows: SEC; Superdex 200 10/300; RING1B-PCGF2 sample with an extra peak at Ve ~ 14.1 mL beside the main peak at Ve ~ 12.2 mL; both purified. The note with it: remark: other sources report otherwise. A general note: Size exclusion chromatography separates by hydrodynamic size, large species first.

For experiment [2], the target named is RING1B (human) (UniProt Q99496). As to the kind of experiment: pull-down; PRC1.2 and PRC1.4 subunits co-expressed in Sf21 cells (MultiBac); strep-tagged RING1B as bait on strep-tactin resin; HEPES 50 mM pH 8, NaCl 150 mM, 1 mM DTT; SDS/PAGE.
Experiment [3] has the same target. The experiment is described as follows: SEC; subunits co-expressed in Sf21 cells; strep-tactin affinity by strep-tagged RING1B, then S200 16/600 and S200 10/300 in HEPES 50 mM pH 8, NaCl 150 mM, 1 mM DTT; subunits identified by SDS/PAGE and peptide mass fingerprinting mass spectrometry.
The target is the same in experiment [4]. The experiment is described as follows: cross-linking; about 50 ug of purified ΔPRC1.2 (four subunits) cross-linked with H12/D12 DSS, 37 °C, 30 min; lysine-lysine links, Cα-Cα maximum distance 27 Å; LC-MS/MS, xQuest/xProphet, FDR 0.05; both purified.
Experiment [5] has the same target. As to the kind of experiment: cross-linking; about 50 ug of purified isolated heterodimers (RING1B-PCGF2; RING1B-ΔPHC2), each cross-linked with H12/D12 DSS, 37 °C, 30 min; LC-MS/MS, xQuest/xProphet, FDR 0.05; both purified.

B1: RING1B, Q99496 1-336 (enzyme)
chain: MSQAVQTNGTQPLSKTWELSLYELQRTPQEAITDGLEIVVSPRSLHSELMCPICLDMLKNTMTTKECLHRFCADCIITALRSGNKECPTCRKKLVSKRSLRPDPNFDALISKIYPSRDEYEAHQERVLARINKHNNQQALSHSIEEGLKIQAMNRLQRGKKQQIENGSGAEDNGDSSHCSNASTHSNQEAGPSNKRTKTSDDSGLELDNNNAAMAIDPVMDGASEIELVFRPHPTLMEKDDSAQTRYIKTSGNATVDHLSKYLAVRLALEELRSKGESNQMNLDTASEKQYTIYIATASGQFTVLNGSFSLELVSEKYWKVNKPMELYYAPTKEHK
On to B1, for which the binding result in experiment [1] is given as “no binding”.

B2: PCGF2 (protein, UniProt P35227 1-344)
chain: MHRTTRIKITELNPHLMCALCGGYFIDATTIVECLHSFCKTCIVRYLETNKYCPMCDVQVHKTRPLLSIRSDKTLQDIVYKLVPGLFKDEMKRRRDFYAAYPLTEVPNGSNEDRGEVLEQEKGALSDDEIVSLSIEFYEGARDRDEKKGPLENGDGDKEKTGVRFLRCPAAMTVMHLAKFLRNKMDVPSKYKVEVLYEDEPLKEYYTLMDIAYIYPWRRNGPLPLKYRVQPACKRLTLATVPTPSEGTNTSGASECESVSDKAPSPATLPATSSSLPSPATPSHGSPSSHGPPATHPTSPTPPSTASGATTAANGGSLNCLQTPSSTSRGRKMTVNGAPVPPLT
For B2, the binding entry in experiment [2], in experiment [3], in experiment [4] and in experiment [5] was “binds” each time.
